According to the supplement of paper PMC6289059:
Some of the results follow. Many values rest on one well or one pass, so single values are uncertain.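 The cells are hepatocyte-like cells grown from human stem cells in which the DGUOK gene was disrupted by CRISPR, a model of liver mtDNA depletion syndrome. Each well's ATP signal was scored against the other wells on its plate, and a drug counted as a primary hit when its score was 3 or higher.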 Residues, ends and D or L forms follow the SMILES beside them.

These compounds were tested on DGUOK Δ14/Δ5 iPSC-derived hepatocyte-like cells (SV20) (assay: ATP level (CellTiter-Glo luminescence) Z score relative to plate distribution, under 2-DG glycolysis block; higher = more cellular ATP (rescue of mitochondrial ATP production)). Conditions: 5 µM; treatment time: day 15 to day 20 of differentiation (5 days); 2-deoxy-D-glucose: 20 mM for 24 h before assay.
In the case of `Cc1cc(O)c2c(c1O)C(=O)c1c(O)cc(C)c(O)c1C2=O`, the ATP level was inactive: 0.375.
`COc1cc(OC)c2ccc(=O)oc2c1` was tested, and the ATP level was inactive: -0.273.
With `N[C@H]1CONC1=O` the ATP level was inactive: 2.47.
With `CCCCC1C(=O)N(c2ccccc2)N(c2ccc(O)cc2)C1=O` (centres undefined) the ATP level was inactive: 1.55.
With `O=C(CCBr)N1CCN(C(=O)CCBr)CC1` the ATP level was inactive: -2.33.
For `O=c1c(O)c(-c2ccc(O)cc2)oc2cc(O)cc(O)c12`, the ATP level was inactive: 1.18.
In the case of `O=C(O)c1cc(=O)c(O)c2c(O)c(O)c(O)cc2c1`, the ATP level was inactive: 0.583.
With `CC(=O)Nc1ccc(OC(=O)c2ccccc2O)cc1` the ATP level was inactive: -5.96.
With `COc1cc2nc(N3CCN(C(=O)C4COc5ccccc5O4)CC3)nc(N)c2cc1OC` (centres undefined) the ATP level was inactive: 2.17.
In the case of `COC(=O)C[C@H]1C2(C)CC34OC5(C)O[C@@]6([C@H](OC(C)=O)C(OC(C)=O)[C@]7(C)C(/C(=C(/O)C(C)C)C(=O)O[C@H]7c7ccoc7)[C@@]6(O5)[C@H](OC(C)=O)[C@@]3(O)C2OC(=O)C(C)C)[C@]14C` (some centres undefined), the ATP level was inactive: 0.566.
With `COC(=O)C1=CO[C@@H](O[C@@H]2O[C@H](CO)[C@@H](O)[C@H](O)[C@H]2O)[C@H]2[C@@H]1C(=O)C[C@@H]2C` the ATP level was inactive: 2.22.
In the case of `N=C(N)SCCN`, the ATP level was inactive: -4.88.
For `CCCCC1C(=O)N(c2ccccc2)N(c2ccccc2)C1=O`, the ATP level was inactive: 1.12.
In the case of `O=C(O)/C=C/C=C/c1ccccc1`, the ATP level was inactive: -0.397.
In the case of `C#C[C@]1(OC(C)=O)CC[C@H]2[C@@H]3CCC4=CC(=O)CC[C@@H]4[C@H]3CC[C@@]21C`, the ATP level was inactive: 0.728.
For `CCCCOC(=O)c1ccc(O)cc1`, the ATP level was inactive: 1.21.
In the case of `COCCCOc1cc(C[C@@H](C[C@H](N)[C@@H](O)C[C@H](C(=O)NCC(C)(C)C(N)=O)C(C)C)C(C)C)ccc1OC`, the ATP level was inactive: 1.58.
With `CCCc1nc2c(C)cc(-c3nc4ccccc4n3C)cc2n1Cc1ccc(-c2ccccc2C(=O)O)cc1` the ATP level was active: 3.08.
With `CC(=O)/N=c1/sc(S(N)(=O)=O)nn1C` the ATP level was active: 3.51.
`CC1=CC(=O)c2ccccc2C1=O` was tested, and the ATP level was inactive: 0.182.
With `N=C(N)N1CCc2ccccc2C1` the ATP level was inactive: 2.81.
In the case of `COc1ccc(-c2cc(=O)c3c(O)c(OC)c(OC)c(OC)c3o2)cc1OC`, the ATP level was inactive: 0.477.
For `COc1cc(C(C)=O)cc(OC)c1O`, the ATP level was inactive: 1.63.
For `COCCCOc1ccnc(C[S+]([O-])c2nc3ccccc3[nH]2)c1C` (centres undefined), the ATP level was inactive: -1.68.
For `CC(C)=CCC/C(C)=C\CO`, the ATP level was inactive: -1.09.
With `O=C(O)Cc1cc(I)c(Oc2ccc(O)c(I)c2)c(I)c1` the ATP level was active: 3.68.
For `CNCC[C@@H](Oc1ccccc1C)c1ccccc1`, the ATP level was inactive: 1.21.
In the case of `COc1cc2c(cc1OC)Cc1cc(OC)c(OC)cc1Cc1cc(OC)c(OC)cc1C2`, the ATP level was inactive: 0.998.
`N[C@@H](CC(=O)N1CCn2c(nnc2C(F)(F)F)C1)Cc1cc(F)c(F)cc1F` was tested, and the ATP level was inactive: 0.809.
For `C[C@@H]1O[C@@H](O[C@H]2[C@H](Oc3cc(O)c4c(c3)O[C@H](c3ccc(O)cc3)CC4=O)O[C@H](CO)[C@@H](O)[C@@H]2O)[C@H](O)[C@H](O)[C@H]1O`, the ATP level was active: 3.01.
`C=COCC(F)(F)F` was tested, and the ATP level was inactive: 2.38.
For `CC(=O)OCC(=O)[C@@]12OC3(CCCC3)O[C@@H]1C[C@H]1[C@@H]3CCC4=CC(=O)C=C[C@]4(C)[C@@]3(F)[C@@H](O)C[C@@]12C`, the ATP level was inactive: 2.12.
For `C[C@@H]1O[C@@H](OC[C@H]2O[C@@H](Oc3c(-c4ccc(O)c(O)c4)oc4cc(O)cc(O)c4c3=O)[C@H](O)[C@@H](O)[C@@H]2O)[C@H](O)[C@H](O)[C@H]1O`, the ATP level was inactive: 1.76.
For `CO/N=C(\C(=O)N[C@@H]1C(=O)N2C(C(=O)O)=C(CSC(=O)c3ccco3)CS[C@H]12)c1csc(N)n1`, the ATP level was active: 3.5.
With `N=C(N)c1ccc(N=NNc2ccc(C(=N)N)cc2)cc1` the ATP level was inactive: -11.8.
In the case of `C[C@H](CCC(=O)O)[C@H]1CC[C@H]2[C@@H]3C[C@H](O)[C@@H]4C[C@H](O)CC[C@]4(C)[C@H]3CC[C@]12C` [alpha-HYDROXYDEOXYCHOLIC ACID], the ATP level was inactive: 1.02.
In the case of `O=C(Nc1ccccc1)OCC(CN1CCCCC1)OC(=O)Nc1ccccc1` (centres undefined), the ATP level was inactive: -5.04.
In the case of `COc1c(O)cc(O)cc1O`, the ATP level was inactive: 1.73.
With `CC[C@@]1(O)C(=O)OCc2c1cc1n(c2=O)Cc2cc3c(CN(C)C)c(O)ccc3nc2-1` the ATP level was active: 3.77.
In the case of `Nc1nnc(-c2cccc(Cl)c2Cl)c(N)n1`, the ATP level was inactive: 0.786.
For `O=C(O)/C=C(\CC(=O)O)C(=O)O`, the ATP level was inactive: 0.836.
For `Nc1nc(=O)[nH]cc1F`, the ATP level was inactive: 0.723.
In the case of `Cc1c(C)c2c(c(C)c1O)CCC(C)(CCCC(C)CCCC(C)CCCC(C)C)O2` (stereo not drawn) [alpha-TOCHOPHEROL [4 mM]], the ATP level was inactive: 1.01.
In the case of `CC(=O)O[C@]1(C(C)=O)CC[C@H]2[C@@H]3C=C(C)C4=CC(=O)CC[C@]4(C)[C@H]3CC[C@@]21C`, the ATP level was inactive: -10.1.
With `NC[C@H]1O[C@H](O[C@H]2[C@H](O)[C@@H](O[C@H]3O[C@H](CO)[C@@H](O)[C@H](N)[C@H]3O)[C@H](N)C[C@@H]2N)[C@H](N)[C@@H](O)[C@@H]1O` the ATP level was inactive: 1.67.
For `COc1cc(O)c(C(=O)c2ccccc2)cc1O`, the ATP level was active: 4.51.
`NC(=O)CC[C@H](NC(=O)[C@@H](N)CO)C(=O)O` (H-Ser-Gln-OH) was tested, and the ATP level was inactive: -0.226.
In the case of `C#CC1(O)CC[C@H]2[C@@H]3CCC4=CC(=O)CC[C@@H]4[C@H]3CC[C@@]21CC` (some centres undefined), the ATP level was inactive: 0.43.
In the case of `O=c1oc2ccccc2cc1O`, the ATP level was inactive: -0.257.
With `OCC(O)C(O)C(O)CO` (centres undefined) the ATP level was inactive: 0.679.
`CC1CCC2(OC1)OC1CC3C4CCC5C[C@@H](O)CCC5(C)C4=CCC3(C)C1[C@@H]2C` (stereo partly drawn) [3beta-HYDROXYISOALLOSPIROST-9(11)-ENE] was tested, and the ATP level was inactive: -1.34.
In the case of `CC(C)(C)NCC(O)COc1cccc2c1CC(O)C(O)C2` (centres undefined), the ATP level was active: 5.97.
`CN(C)CC(=O)OC[C@@H](O)[C@@H](O)[C@H](O)[C@@H](O)C(=O)O` was tested, and the ATP level was inactive: 1.24.
For `Cc1cc(O)cc(O)c1C(=O)O`, the ATP level was inactive: -2.94.
